The reference is the same well before dosing, and untreated signal decays as well.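 Labels refer to human fibroblasts, largely primary: uterine (C12385, HUF), lung (H6013), bone (Hs27A), adrenal (HADF), skin (WS1), plus mammary HMF and breast cancer-associated Hs343T. Cancer lines are basal-like or mesenchymal-like triple-negative breast cancer. The paper counts as hits responses shifting over 3x the replicate standard deviation. The tissue of the other fibroblasts is not given here.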
System: MDAMB436
Test: relative JC-1 red fluorescence (viability) vs pre-drug, coculture with fibroblast (fraction); higher = more viable cancer cells
Procedure: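 JC-1 labelled TNBC cells cocultured 1:1 (1,500 cells each) with CellTrace Violet stained primary or stromal fibroblasts in 384-well plates in FluoroBrite medium, treated with one of 42 anticancer drugs at 0.1, 1, 10 or 100 uM. JC-1 red fluorescence (mitochondrial integrity in cancer cells only) was read by plate reader every 8 h for 72 h. Values are normalised to each well's pre-drug value. The stock of one drug was tenfold lower, so its dose labels may be too high.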

CCN(CC)CCNC(=O)c1c(C)[nH]c(/C=C2\C(=O)Nc3ccc(F)cc32)c1C [Sunitinib]
relative JC-1 red fluorescence
Conditions | 8 h | 16 h | 24 h | 32 h | 40 h | 48 h | 56 h | 64 h | 72 h
0.1 µM, coculture fibroblast: C12385 | 0.752 | 0.7136 | 0.679 | 0.6059 | 0.5629 | 0.548 | 0.539 | 0.532 | 0.536
0.1 µM, coculture fibroblast: H6013 | 0.81 | 0.783 | 0.771 | 0.766 | 0.758 | 0.788 | 0.755 | 0.734 | 0.701
0.1 µM, coculture fibroblast: H6019 | 0.737 | 0.7 | 0.682 | 0.609 | 0.567 | 0.549 | 0.522 | 0.488 | 0.467
0.1 µM, coculture fibroblast: H6076 | 0.753 | 0.697 | 0.701 | 0.66 | 0.663 | 0.638 | 0.652 | 0.649 | 0.639
0.1 µM, coculture fibroblast: H6231 | 0.755 | 0.704 | 0.731 | 0.641 | 0.625 | 0.592 | 0.5877 | 0.571 | 0.551
0.1 µM, coculture fibroblast: HADF | 0.7814 | 0.785 | 0.767 | 0.735 | 0.735 | 0.783 | 0.727 | 0.737 | 0.701
0.1 µM, coculture fibroblast: HCFa | 0.7918 | 0.765 | 0.735 | 0.716 | 0.701 | 0.725 | 0.667 | 0.656 | 0.609
0.1 µM, coculture fibroblast: HCPF | 0.795 | 0.758 | 0.767 | 0.703 | 0.692 | 0.661 | 0.646 | 0.63 | 0.616
0.1 µM, coculture fibroblast: HHSteC | 0.807 | 0.788 | 0.774 | 0.735 | 0.738 | 0.75 | 0.7 | 0.684 | 0.628
0.1 µM, coculture fibroblast: HMF | 0.756 | 0.712 | 0.696 | 0.656 | 0.645 | 0.623 | 0.626 | 0.605 | 0.602
0.1 µM, coculture fibroblast: HPFa | 0.854 | 0.8137 | 0.781 | 0.743 | 0.741 | 0.748 | 0.68 | 0.663 | 0.589
0.1 µM, coculture fibroblast: HUF | 0.81 | 0.745 | 0.732 | 0.658 | 0.607 | 0.586 | 0.568 | 0.563 | 0.551
0.1 µM, coculture fibroblast: Hs5 | 0.76 | 0.734 | 0.732 | 0.691 | 0.688 | 0.654 | 0.663 | 0.633 | 0.625
0.1 µM, coculture fibroblast: Hs27A | 0.817 | 0.793 | 0.787 | 0.764 | 0.748 | 0.812 | 0.722 | 0.705 | 0.628
0.1 µM, coculture fibroblast: Hs343T | 0.721 | 0.68 | 0.666 | 0.621 | 0.6 | 0.576 | 0.576 | 0.561 | 0.558
0.1 µM, coculture fibroblast: WS1 | 0.737 | 0.703 | 0.688 | 0.612 | 0.586 | 0.57 | 0.555 | 0.537 | 0.537
1 µM, coculture fibroblast: C12385 | 0.791 | 0.714 | 0.684 | 0.601 | 0.554 | 0.528 | 0.501 | 0.478 | 0.467
1 µM, coculture fibroblast: H6013 | 0.8435 | 0.863 | 0.884 | 0.917 | 0.809 | 0.904 | 0.816 | 0.84 | 0.924
1 µM, coculture fibroblast: H6019 | 0.79 | 0.779 | 0.799 | 0.737 | 0.723 | 0.703 | 0.672 | 0.635 | 0.607
1 µM, coculture fibroblast: H6076 | 0.852 | 0.811 | 0.836 | 0.803 | 0.792 | 0.771 | 0.774 | 0.768 | 0.746
1 µM, coculture fibroblast: H6231 | 0.809 | 0.746 | 0.7658 | 0.681 | 0.661 | 0.6193 | 0.611 | 0.59 | 0.565
1 µM, coculture fibroblast: HADF | 0.829 | 0.782 | 0.755 | 0.731 | 0.725 | 0.758 | 0.699 | 0.697 | 0.657
1 µM, coculture fibroblast: HCFa | 0.784 | 0.7754 | 0.743 | 0.714 | 0.693 | 0.716 | 0.646 | 0.637 | 0.58
1 µM, coculture fibroblast: HCPF | 0.823 | 0.778 | 0.778 | 0.716 | 0.695 | 0.661 | 0.643 | 0.618 | 0.59
1 µM, coculture fibroblast: HHSteC | 0.819 | 0.792 | 0.759 | 0.729 | 0.717 | 0.73 | 0.667 | 0.652 | 0.591
1 µM, coculture fibroblast: HMF | 0.804 | 0.765 | 0.772 | 0.715 | 0.692 | 0.654 | 0.658 | 0.64 | 0.621
1 µM, coculture fibroblast: HPFa | 0.865 | 0.802 | 0.775 | 0.734 | 0.724 | 0.729 | 0.663 | 0.642 | 0.58
1 µM, coculture fibroblast: HUF | 0.831 | 0.7376 | 0.71422 | 0.6369 | 0.582 | 0.5521 | 0.517 | 0.5 | 0.489
1 µM, coculture fibroblast: Hs5 | 0.811 | 0.773 | 0.777 | 0.723 | 0.711 | 0.671 | 0.668 | 0.636 | 0.615
1 µM, coculture fibroblast: Hs27A | 0.881 | 0.796 | 0.776 | 0.753 | 0.731 | 0.79 | 0.696 | 0.689 | 0.621
1 µM, coculture fibroblast: Hs343T | 0.808 | 0.773 | 0.768 | 0.727 | 0.71 | 0.676 | 0.664 | 0.654 | 0.642
1 µM, coculture fibroblast: WS1 | 0.742 | 0.693 | 0.675 | 0.6031 | 0.5689 | 0.556 | 0.532 | 0.514 | 0.507

— the supplement of paper PMC6078165
